Drawing on publication PMC5873529, this text covers binding for one molecule.

Sequences of proteins named here, by UniProt entry; tags and fusion partners are left off.
UniProt Q8IX03: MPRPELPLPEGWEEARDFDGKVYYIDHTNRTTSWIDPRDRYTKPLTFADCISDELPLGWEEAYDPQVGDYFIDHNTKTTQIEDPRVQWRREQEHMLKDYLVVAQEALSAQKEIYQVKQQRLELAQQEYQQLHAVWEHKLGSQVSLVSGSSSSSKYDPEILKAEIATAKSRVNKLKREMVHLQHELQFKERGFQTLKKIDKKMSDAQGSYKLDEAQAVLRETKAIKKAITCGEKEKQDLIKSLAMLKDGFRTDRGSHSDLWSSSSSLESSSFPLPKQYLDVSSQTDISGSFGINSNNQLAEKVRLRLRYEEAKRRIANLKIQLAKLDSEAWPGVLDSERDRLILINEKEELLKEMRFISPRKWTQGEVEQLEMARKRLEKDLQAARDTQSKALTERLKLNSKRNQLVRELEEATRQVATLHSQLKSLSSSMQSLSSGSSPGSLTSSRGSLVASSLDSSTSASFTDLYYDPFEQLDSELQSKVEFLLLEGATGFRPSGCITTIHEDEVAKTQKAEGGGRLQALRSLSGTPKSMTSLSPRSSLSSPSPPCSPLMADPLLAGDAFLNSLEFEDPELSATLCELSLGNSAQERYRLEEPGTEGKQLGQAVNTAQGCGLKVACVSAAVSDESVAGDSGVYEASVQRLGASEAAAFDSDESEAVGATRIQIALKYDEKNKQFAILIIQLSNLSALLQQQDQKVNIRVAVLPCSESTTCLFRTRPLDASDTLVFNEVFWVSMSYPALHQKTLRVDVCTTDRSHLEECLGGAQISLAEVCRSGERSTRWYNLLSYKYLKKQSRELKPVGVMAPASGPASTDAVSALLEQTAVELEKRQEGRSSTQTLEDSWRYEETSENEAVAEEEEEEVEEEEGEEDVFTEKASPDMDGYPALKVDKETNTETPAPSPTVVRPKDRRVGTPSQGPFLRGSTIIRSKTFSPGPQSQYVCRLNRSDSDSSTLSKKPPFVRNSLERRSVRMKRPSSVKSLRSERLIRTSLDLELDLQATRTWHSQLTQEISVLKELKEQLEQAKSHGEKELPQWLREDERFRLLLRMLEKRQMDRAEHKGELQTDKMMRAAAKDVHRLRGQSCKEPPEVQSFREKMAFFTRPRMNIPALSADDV

The assay has as its target wild-type KIBRA expressed in MDA-MB-231 cells for co-immunoprecipitation (UniProt Q8IX03). In words: co-IP; MDA-MB-231 cells expressing wild-type or mutated KIBRA; which protein was precipitated is not told.

These are yes or no findings as the source states them, for the method shown. Binding seen in cells or lysates may run through a third protein. Some entries that bind do so weakly or less than the wild type.

B1: PTPN14 (protein tyrosine phosphatase non-receptor 14) (enzyme, UniProt Q15678 1-1187)
chain: MPFGLKLRRTRRYNVLSKNCFVTRIRLLDSNVIECTLSVESTGQECLEAVAQRLELRETHYFGLWFLSKSQQARWVELEKPLKKHLDKFANEPLLFFGVMFYVPNVSWLQQEATRYQYYLQVKKDVLEGRLRCTLDQVIRLAGLAVQADFGDYNQFDSQDFLREYVLFPMDLALEEAVLEELTQKVAQEHKAHSGILPAEAELMYINEVERLDGFGQEIFPVKDNHGNCVHLGIFFMGIFVRNRIGRQAVIYRWNDMGNITHNKSTILVELINKEETALFHTDDIENAKYISRLFATRHKFYKQNKICTEQSNSPPPIRRQPTWSRSSLPRQQPYILPPVHVQCGEHYSETHTSQDSIFHGNEEALYCNSHNSLDLNYLNGTVTNGSVCSVHSVNSLNCSQSFIQASPVSSNLSIPGSDIMRADYIPSHRHSAIIVPSYRPTPDYETVMRQMKRGILHTDSQSQSLRNLNIINTHAYNQPEDLVYSQPEMRERHPYTVPYGPQGVYSNKLVSPSDQRNPKNNVVPSKPGASAISHTVSTPELANMQLQGSHNYSTAHMLKNYLFRPPPPYPRPRPATSTPDLASHRHKYVSGSSPDLVTRKVQLSVKTFQEDSSPVVHQSLQEVSEPLTATKHHGTVNKRHSLEVMNSMVRGMEAMTLKSLHLPMARRNTLREQGPPEEGSGSHEVPQLPQYHHKKTFSDATMLIHSSESEEEEEEAPESVPQIPMLREKMEYSAQLQAALARIPNKPPPEYPGPRKSVSNGALRQDQASLPPAMARARVLRHGPAKAISMSRTDPPAVNGASLGPSISEPDLTSVKERVKKEPVKERPVSEMFSLEDSIIEREMMIRNLEKQKMAGLEAQKRPLMLAALNGLSVARVSGREENRVDATRVPMDERFRTLKKKLEEGMVFTEYEQIPKKKANGIFSTAALPENAERSRIREVVPYEENRVELIPTKENNTGYINASHIKVVVGGAEWHYIATQGPLPHTCHDFWQMVWEQGVNVIAMVTAEEEGGRTKSHRYWPKLGSKHSSATYGKFKVTTKFRTDSVCYATTGLKVKHLLSGQERTVWHLQYTDWPDHGCPEDVQGFLSYLEEIQSVRRHTNSMLEGTKNRHPPIVVHCSAGVGRTGVLILSELMIYCLEHNEKVEVPMMLRLLREQRMFMIQTIAQYKFVYQVLIQFLQNSRLI
Consider B1, for which the binding result is reported as “binds”.
